Results published in paper doi:10.1101/2025.03.31.25324995.
Results are given in words; binding and its absence hold for the method and conditions named. In cells and extracts the contact can be indirect. These calls come from enrichment with a bait or labelling near it, and not all partners need be listed. Values belong to the molecule of their own block, whether it stands above or below them.

Chains of the proteins cited; added tags and fusions are not shown.
UniProt P06733: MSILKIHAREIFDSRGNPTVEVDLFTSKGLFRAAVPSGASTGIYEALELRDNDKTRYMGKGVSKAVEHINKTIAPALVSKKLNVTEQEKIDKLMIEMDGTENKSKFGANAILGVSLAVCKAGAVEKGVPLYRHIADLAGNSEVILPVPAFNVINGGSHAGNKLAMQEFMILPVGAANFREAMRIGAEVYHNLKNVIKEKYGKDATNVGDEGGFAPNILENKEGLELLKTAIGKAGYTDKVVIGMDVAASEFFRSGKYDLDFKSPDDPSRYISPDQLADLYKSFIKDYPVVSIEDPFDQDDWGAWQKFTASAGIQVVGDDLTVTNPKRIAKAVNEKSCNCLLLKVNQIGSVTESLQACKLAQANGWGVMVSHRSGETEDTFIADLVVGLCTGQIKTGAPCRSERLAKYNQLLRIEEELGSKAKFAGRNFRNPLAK
UniProt Q7Z6E9: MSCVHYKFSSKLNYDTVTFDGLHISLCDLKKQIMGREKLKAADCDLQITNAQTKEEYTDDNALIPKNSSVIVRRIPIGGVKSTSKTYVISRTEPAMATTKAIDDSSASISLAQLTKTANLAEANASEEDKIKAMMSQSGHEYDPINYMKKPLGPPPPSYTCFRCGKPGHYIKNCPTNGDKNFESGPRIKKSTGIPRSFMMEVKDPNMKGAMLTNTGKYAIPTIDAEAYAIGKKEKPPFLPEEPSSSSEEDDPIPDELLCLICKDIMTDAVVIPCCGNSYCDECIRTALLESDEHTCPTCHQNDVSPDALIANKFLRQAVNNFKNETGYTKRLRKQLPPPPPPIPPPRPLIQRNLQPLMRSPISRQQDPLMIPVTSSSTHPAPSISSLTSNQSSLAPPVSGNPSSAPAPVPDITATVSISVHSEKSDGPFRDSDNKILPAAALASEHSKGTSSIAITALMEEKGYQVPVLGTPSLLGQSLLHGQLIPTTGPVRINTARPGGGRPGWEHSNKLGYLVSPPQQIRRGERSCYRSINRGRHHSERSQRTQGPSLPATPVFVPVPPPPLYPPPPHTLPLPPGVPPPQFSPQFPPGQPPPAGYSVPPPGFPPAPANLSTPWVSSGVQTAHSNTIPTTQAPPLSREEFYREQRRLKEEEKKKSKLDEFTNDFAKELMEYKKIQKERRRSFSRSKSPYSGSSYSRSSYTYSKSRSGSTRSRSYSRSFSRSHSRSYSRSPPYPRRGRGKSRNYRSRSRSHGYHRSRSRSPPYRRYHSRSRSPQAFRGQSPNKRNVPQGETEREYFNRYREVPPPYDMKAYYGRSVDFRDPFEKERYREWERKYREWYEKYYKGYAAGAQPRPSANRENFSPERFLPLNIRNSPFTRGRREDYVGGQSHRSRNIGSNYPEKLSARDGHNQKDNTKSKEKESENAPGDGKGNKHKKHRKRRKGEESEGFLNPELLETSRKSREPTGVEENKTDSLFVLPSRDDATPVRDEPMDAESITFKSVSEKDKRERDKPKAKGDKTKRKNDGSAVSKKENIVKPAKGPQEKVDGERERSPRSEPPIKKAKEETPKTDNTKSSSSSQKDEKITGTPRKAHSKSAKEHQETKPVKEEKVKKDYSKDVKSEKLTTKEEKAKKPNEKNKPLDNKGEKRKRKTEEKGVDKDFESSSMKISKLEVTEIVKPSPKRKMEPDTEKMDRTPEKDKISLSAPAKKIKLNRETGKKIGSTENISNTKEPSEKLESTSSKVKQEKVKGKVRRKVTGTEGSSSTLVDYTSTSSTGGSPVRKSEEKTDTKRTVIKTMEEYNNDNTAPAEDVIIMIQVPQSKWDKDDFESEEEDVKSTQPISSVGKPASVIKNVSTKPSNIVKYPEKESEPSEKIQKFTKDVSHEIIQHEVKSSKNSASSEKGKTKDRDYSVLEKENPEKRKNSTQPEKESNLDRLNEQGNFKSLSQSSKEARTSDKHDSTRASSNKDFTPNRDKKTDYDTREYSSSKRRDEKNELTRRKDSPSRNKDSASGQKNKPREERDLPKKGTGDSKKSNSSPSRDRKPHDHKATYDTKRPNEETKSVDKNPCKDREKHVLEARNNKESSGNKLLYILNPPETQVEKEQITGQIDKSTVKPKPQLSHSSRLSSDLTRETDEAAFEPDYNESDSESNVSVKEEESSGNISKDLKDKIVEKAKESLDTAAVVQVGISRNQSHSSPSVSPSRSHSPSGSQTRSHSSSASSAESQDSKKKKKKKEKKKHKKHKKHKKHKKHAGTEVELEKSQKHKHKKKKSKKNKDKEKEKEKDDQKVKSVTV

Target: ENO1 (alpha-enolase), endogenous in AC16 cardiomyocytes (human (endogenous in AC16)) (UniProt P06733)
Test: affinity purification with mass spectrometry

binding: binds
Molecule: RBBP6, endogenous in AC16 nuclear fraction (from UniProt Q7Z6E9 1-1792)

binding: binds
B1: NACC1, endogenous in AC16 nuclear fraction (protein, UniProt Q96RE7 1-527)
chain: MAQTLQMEIPNFGNSILECLNEQRLQGLYCDVSVVVKGHAFKAHRAVLAASSSYFRDLFNNSRSAVVELPAAVQPQSFQQILSFCYTGRLSMNVGDQFLLMYTAGFLQIQEIMEKGTEFFLKVSSPSCDSQGLHAEEAPSSEPQSPVAQTSGWPACSTPLPLVSRVKTEQQESDSVQCMPVAKRLWDSGQKEAGGGGNGSRKMAKFSTPDLAANRPHQPPPPQQAPVVAAAQPAVAAGAGQPAGGVAAAGGVVSGPSTSERTSPGTSSAYTSDSPGSYHNEEDEEEDGGEEGMDEQYRQICNMYTMYSMMNVGQTAEKVEALPEQVAPESRNRIRVRQDLASLPAELINQIGNRCHPKLYDEGDPSEKLELVTGTNVYITRAQLMNCHVSAGTRHKVLLRRLLASFFDRNTLANSCGTGIRSSTNDPRRKPLDSRVLHAVKYYCQNFAPNFKESEMNAIAADMCTNARRVVRKSWMPKVKVLKAEDDAYTTFISETGKIEPDMMGVEHGFETASHEGEAGPSAEALQ
